# Source: the supplement of paper PMC12067093, “Discovery and optimisation of a covalent ligand for TRIM25 and its application to targeted protein ubiquitination” (Chemical Science, 2025)
# By UniProt entry, the sequences of proteins in these tests, tags left out. Where a name states a change or a piece, a line headed by the entry shows the natural chain unless it says otherwise.
# UniProt P11388: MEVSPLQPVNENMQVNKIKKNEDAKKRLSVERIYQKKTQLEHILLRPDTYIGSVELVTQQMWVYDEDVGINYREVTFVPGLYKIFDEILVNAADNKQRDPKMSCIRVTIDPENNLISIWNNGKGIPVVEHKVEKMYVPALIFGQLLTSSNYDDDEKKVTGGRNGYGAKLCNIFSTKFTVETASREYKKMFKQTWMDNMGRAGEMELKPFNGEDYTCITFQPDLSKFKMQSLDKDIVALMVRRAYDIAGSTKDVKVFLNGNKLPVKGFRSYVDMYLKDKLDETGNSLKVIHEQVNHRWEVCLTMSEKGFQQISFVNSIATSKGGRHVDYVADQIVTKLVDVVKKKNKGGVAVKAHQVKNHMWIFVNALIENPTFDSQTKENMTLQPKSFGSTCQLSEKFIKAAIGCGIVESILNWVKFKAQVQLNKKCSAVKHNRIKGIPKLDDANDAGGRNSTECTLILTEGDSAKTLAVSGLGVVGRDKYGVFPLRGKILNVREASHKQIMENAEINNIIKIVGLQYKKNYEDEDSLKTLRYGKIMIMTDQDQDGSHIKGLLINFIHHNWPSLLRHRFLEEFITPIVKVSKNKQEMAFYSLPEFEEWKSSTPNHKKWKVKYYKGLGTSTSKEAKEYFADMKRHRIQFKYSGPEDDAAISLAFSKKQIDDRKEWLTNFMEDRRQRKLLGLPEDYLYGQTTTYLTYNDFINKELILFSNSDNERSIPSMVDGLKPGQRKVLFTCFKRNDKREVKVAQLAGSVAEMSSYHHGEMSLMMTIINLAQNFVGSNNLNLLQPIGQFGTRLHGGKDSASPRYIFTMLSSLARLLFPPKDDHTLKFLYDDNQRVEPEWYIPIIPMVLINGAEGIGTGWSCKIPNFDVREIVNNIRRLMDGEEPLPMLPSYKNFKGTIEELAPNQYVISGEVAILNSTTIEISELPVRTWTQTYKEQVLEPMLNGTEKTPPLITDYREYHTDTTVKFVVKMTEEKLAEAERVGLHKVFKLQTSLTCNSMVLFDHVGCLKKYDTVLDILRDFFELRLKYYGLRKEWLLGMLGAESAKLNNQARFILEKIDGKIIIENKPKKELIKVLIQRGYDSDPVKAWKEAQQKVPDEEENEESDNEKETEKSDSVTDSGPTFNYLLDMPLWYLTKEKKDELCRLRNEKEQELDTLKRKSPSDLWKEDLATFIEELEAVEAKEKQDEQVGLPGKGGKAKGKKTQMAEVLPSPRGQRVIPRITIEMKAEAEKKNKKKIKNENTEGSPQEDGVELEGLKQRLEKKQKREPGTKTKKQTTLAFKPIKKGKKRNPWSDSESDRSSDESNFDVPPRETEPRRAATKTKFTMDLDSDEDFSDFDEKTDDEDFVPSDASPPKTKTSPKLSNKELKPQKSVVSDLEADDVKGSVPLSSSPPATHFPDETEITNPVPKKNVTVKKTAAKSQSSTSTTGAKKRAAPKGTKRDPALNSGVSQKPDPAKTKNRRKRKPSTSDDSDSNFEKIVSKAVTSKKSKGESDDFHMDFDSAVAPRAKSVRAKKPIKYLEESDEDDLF
# UniProt Q92973: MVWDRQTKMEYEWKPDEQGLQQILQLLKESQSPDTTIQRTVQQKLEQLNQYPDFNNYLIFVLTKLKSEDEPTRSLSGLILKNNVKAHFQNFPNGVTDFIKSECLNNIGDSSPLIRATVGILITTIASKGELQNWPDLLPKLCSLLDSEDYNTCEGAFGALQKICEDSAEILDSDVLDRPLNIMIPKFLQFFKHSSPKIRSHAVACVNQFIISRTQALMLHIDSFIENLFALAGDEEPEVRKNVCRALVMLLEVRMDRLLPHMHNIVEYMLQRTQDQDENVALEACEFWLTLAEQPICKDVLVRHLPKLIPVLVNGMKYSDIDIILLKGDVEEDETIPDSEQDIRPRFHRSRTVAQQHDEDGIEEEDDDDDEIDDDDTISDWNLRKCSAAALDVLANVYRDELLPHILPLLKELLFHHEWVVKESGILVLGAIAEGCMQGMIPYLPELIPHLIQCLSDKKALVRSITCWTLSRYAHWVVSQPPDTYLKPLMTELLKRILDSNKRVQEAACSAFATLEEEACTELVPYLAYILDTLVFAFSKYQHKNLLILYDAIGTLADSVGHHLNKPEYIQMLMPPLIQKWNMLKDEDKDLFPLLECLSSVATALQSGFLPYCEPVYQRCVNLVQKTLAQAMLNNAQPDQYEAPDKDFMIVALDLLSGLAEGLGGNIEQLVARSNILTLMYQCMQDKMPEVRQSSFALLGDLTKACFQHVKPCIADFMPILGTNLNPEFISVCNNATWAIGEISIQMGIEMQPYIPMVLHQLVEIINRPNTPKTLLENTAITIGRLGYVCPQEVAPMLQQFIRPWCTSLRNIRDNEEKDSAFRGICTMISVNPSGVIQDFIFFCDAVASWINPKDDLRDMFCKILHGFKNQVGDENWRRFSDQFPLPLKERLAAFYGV
# UniProt Q92547, whole entry, looked up: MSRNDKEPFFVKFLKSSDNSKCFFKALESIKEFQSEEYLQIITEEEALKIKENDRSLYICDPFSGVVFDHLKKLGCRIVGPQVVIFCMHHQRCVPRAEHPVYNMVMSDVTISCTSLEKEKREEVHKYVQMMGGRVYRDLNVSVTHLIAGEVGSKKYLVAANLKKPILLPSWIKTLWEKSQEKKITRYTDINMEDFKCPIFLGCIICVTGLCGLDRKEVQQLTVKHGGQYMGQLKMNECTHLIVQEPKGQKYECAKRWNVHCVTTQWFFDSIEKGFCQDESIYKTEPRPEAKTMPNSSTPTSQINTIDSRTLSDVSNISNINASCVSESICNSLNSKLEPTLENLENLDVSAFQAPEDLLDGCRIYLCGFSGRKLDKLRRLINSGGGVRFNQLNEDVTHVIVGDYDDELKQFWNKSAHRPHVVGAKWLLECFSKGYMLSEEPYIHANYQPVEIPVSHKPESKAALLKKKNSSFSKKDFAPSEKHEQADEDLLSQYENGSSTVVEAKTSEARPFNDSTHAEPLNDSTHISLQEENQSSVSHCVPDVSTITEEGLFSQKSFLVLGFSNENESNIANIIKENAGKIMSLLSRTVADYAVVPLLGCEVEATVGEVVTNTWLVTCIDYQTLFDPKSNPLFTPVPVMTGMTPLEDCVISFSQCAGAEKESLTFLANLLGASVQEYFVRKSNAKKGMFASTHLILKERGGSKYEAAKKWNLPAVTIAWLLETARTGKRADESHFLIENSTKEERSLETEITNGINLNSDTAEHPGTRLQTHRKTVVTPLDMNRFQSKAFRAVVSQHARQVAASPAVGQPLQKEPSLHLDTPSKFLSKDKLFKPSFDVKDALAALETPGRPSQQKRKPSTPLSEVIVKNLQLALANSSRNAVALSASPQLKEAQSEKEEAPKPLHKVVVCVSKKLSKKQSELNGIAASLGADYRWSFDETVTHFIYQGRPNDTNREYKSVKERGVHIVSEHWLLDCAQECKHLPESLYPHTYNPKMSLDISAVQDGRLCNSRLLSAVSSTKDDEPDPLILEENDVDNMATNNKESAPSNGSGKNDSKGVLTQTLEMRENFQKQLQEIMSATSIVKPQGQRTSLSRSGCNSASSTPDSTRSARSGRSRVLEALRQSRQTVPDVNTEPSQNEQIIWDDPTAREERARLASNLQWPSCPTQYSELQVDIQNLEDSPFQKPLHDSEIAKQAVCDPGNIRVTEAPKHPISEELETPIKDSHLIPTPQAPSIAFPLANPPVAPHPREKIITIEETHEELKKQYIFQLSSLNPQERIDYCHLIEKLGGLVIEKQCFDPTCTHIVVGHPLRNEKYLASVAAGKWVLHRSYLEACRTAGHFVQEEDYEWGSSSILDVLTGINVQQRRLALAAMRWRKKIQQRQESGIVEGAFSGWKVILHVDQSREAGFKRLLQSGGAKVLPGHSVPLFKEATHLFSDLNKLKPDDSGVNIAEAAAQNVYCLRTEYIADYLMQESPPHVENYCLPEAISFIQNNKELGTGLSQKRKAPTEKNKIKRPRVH
# UniProt Q96HA7: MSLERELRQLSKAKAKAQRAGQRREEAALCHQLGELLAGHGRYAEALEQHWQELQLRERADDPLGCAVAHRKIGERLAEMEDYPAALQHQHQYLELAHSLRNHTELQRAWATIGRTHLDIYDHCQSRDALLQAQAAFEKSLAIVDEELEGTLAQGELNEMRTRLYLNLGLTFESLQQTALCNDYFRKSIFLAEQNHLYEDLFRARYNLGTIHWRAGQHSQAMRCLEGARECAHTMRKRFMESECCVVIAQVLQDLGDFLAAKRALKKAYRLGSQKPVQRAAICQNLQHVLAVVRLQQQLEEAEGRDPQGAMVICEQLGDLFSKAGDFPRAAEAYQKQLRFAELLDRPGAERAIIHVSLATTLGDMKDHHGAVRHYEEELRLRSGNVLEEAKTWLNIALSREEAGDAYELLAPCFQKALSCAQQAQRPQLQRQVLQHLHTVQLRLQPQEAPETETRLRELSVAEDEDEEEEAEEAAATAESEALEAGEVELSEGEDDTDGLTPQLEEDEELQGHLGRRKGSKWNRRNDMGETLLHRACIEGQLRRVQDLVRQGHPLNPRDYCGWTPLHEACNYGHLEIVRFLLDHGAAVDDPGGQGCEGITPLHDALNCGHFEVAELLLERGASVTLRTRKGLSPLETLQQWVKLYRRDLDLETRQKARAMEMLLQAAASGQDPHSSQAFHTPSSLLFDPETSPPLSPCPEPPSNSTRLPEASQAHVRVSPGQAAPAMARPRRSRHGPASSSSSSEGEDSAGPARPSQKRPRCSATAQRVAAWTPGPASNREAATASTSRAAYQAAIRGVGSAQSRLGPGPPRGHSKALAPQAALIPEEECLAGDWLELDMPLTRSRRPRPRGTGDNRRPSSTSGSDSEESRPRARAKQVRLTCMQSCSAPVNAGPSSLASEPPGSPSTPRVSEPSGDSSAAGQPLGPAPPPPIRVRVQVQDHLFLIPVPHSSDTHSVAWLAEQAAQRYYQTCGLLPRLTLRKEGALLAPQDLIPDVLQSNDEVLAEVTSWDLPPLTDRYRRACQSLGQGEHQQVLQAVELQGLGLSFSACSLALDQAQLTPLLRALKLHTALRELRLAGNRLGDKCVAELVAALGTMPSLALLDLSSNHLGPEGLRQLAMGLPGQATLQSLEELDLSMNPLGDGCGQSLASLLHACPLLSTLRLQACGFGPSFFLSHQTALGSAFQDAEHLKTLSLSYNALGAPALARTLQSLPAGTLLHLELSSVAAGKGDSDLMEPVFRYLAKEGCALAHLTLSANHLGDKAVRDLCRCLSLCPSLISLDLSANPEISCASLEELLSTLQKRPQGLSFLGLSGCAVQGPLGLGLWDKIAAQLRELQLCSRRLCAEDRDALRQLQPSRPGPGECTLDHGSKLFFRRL
# UniProt Q03169: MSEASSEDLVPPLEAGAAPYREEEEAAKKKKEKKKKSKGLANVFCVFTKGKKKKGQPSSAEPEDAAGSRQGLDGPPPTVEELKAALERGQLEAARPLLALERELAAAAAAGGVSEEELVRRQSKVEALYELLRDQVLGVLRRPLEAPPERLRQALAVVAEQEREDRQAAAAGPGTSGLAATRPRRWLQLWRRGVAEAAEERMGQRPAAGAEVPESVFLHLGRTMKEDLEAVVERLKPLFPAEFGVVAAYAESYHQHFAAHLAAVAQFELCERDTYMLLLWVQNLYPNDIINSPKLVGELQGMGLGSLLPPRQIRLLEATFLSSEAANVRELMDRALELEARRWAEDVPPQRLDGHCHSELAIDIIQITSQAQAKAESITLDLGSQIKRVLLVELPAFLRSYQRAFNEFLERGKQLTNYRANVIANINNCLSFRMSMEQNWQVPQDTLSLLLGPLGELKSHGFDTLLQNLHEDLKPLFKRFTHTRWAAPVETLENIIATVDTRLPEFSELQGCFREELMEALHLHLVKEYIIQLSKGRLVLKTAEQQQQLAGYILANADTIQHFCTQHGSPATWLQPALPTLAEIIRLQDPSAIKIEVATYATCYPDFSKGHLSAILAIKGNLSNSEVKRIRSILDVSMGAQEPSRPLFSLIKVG
# UniProt O94826, whole entry, looked up: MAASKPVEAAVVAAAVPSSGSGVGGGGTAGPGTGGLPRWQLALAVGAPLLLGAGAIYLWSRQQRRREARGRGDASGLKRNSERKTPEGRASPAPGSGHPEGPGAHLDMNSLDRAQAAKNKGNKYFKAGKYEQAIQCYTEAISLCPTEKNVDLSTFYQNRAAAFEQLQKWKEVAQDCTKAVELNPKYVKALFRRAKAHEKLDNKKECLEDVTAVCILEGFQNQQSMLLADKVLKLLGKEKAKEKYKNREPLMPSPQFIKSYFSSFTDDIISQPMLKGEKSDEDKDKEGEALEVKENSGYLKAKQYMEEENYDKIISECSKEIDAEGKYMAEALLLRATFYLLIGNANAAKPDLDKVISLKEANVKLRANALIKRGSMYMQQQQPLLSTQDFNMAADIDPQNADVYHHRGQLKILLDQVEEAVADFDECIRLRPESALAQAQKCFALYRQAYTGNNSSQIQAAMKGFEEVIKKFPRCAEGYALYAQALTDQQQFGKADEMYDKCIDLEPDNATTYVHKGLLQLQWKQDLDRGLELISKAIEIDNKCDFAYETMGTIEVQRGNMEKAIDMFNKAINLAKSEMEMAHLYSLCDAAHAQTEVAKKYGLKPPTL
# This is one part of the list.
# Compound: CC1Cc2ccccc2N1C(=O)C1CCCN(C1)C(=O)CCl (mixture of isomers) [TRIM25 ligand 11 (diastereomer mixture)]
# Assay: probe-labelled cysteine peptide fold change vs DMSO (competition) (log2 fold change); higher = less target engagement (more negative = stronger competition)
# Details: 10 µM; THP-1; incubation time: 4 h
# 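Further: competitive chemoproteomic profiling in live THP-1 cells with an iodoacetamide desthiobiotin (IA-DTB) probe, comparing probe-labelled peptide intensities in compound-treated cells against DMSO-treated controls.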
row,Target,probe-labelled cysteine peptide fold change
1,TMEM106B_Q9NUM4_61+64_DSVTCPTCQGTGR (UniProt Q9NUM4),-0.122
2,TOP3B_O95985_442_IGPELFTCSGK (UniProt O95985),0.00204
3,TOP1_P11387_504+505_EEGETADTVGCCSLR (UniProt P11387),0.0887
4,TLN2_Q9Y4G6_289_NCGEMSEIEAK (UniProt Q9Y4G6),0.213
5,TMEM62_Q0P6H9_325_SLLYSCGEHEPLER (UniProt Q0P6H9),0.0278
6,TOPORS_Q9NS56_550_GHCDSSTR (UniProt Q9NS56),0.107
7,TNS3_Q68CZ2_227_ICIVIEPAQLLK (UniProt Q68CZ2),-0.207
8,TLN1_Q9Y490_1939_AGALQCSPSDAYTK (UniProt Q9Y490),0.0307
9,TOP2A_P11388_1145_EKKDELCR (UniProt P11388),-0.251
10,TOR3A_Q9H497_193_DGLMSDCVR (UniProt Q9H497),-0.00626
11,TOPORS_Q9NS56_49_HRPSFLGCR (UniProt Q9NS56),-0.0352
12,TMEM131L_A2VDJ0_352_IASFTCK (UniProt A2VDJ0),-0.0719
13,TOP2A_P11388_1145_KDELCR (UniProt P11388),-0.0248
14,TNPO1_Q92973_683_SNILTLMYQCMQDK (UniProt Q92973),0.0486
15,TOPBP1_Q92547_1284_IDYCHLIEK (UniProt Q92547),0.0461
16,TMED4_Q7Z7H5_41_RCFIEEIPDETMVIGNYR (UniProt Q7Z7H5),-0.113
17,TONSL_Q96HA7_231_ECAHTMR (UniProt Q96HA7),-0.264
18,TNFAIP2_Q03169_45_GLANVFCVFTK (UniProt Q03169),-0.27
19,TNS3_Q68CZ2_25_IIAVSFPAGCSEESYLHNLQEVTR (UniProt Q68CZ2),-0.0308
20,TLN1_Q9Y490_1509_HTSALCNSCR (UniProt Q9Y490),0.139

# Not a retest: entries from further up.
row,Target,probe-labelled cysteine peptide fold change
15,TOPBP1_Q92547_1284_IDYCHLIEK (UniProt Q92547),0.0461
16,TMED4_Q7Z7H5_41_RCFIEEIPDETMVIGNYR (UniProt Q7Z7H5),-0.113

# (continued)

row,Target,probe-labelled cysteine peptide fold change
1,TOR3A_Q9H497_227_ETQQLCHQTLFIFDEAEK (UniProt Q9H497),0.19
2,TMA16_Q96EY4_162_ICANDAIPK (UniProt Q96EY4),-0.0162
3,TLN1_Q9Y490_1506+1509_HTSALCNSCR (UniProt Q9Y490),0.12
4,TOMM40_O96008_76_TPGAATASASGAAEDGACGCLPNPGTFEECHRK (UniProt O96008),-0.21
5,TNFAIP2_Q03169_512_LPEFSELQGCFREELMEALHLHLVK (UniProt Q03169),0.0837
6,TMEM173_Q86WV6_206_LYILLPLDCGVPDNLSMADPNIR (UniProt Q86WV6),-0.0611
7,TM2D3_Q9BRN9_166_DHVHCLGNR (UniProt Q9BRN9),-0.109
8,TLN2_Q9Y4G6_1047_AHEACGPMEIDSALNTVQTLK (UniProt Q9Y4G6),-0.0171
9,TMED3_Q9Y3Q3_144_VTALTQMESACVTIHEALK (UniProt Q9Y3Q3),0.283
10,TPD52L2_O43399_74_HCGELK (UniProt O43399),-0.1
11,TP53BP2_Q13625_1083_EGDCMTIIHREDEDEIEWWWAR (UniProt Q13625),-0.000192
12,TOMM70_O94826_588_SEMEMAHLYSLCDAAHAQTEVAKK (UniProt O94826),-0.187
13,TOMM70_O94826_317_IISECSK (UniProt O94826),-0.112
14,TLN1_Q9Y490_2161_ALEATTEHIRQELAVFCSPEPPAK (UniProt Q9Y490),-0.0662
15,TMEM206_Q9H813_128_EVDRYDAPGIALYPGQAQLLSCK (UniProt Q9H813),-0.0346
16,TNRC18_O15417_475_ELLKPEADPRPCER (UniProt O15417),-0.148
17,TONSL_Q96HA7_1345_RLCAEDR (UniProt Q96HA7),0.128
18,TMEM141_Q96I45_86_CNNLWLFLETGQLPK (UniProt Q96I45),0.119
19,TNIP1_Q15025_171_LETTLSVCAEEPDHGQLFTHLGR (UniProt Q15025),0.129
20,TNPO1_Q92973_153_LCSLLDSEDYNTCEGAFGALQK (UniProt Q92973),-0.0199
